The list does not hold the whole screen: it gathers tests that were run many times, whatever their T/C, doses with no T/C, and many T/C values between a quarter and a half above the control. Other doses and runs of a compound stand elsewhere. T/C: endpoint of the treated group in % of that of the vehicle group. Some entries give survivors of the animals treated and no T/C: the source files T/C as zero there, which appears to mark a toxic dose or a test without result, not a measured value. Some doses without a T/C left all or most animals alive at the check, yet need not have been tolerated: the source hardly ever lists a survival T/C far under the control, and the zero likely stands for such cases as well. Counts of survivors are from the toxicity check (mostly the fifth day) where no day follows; animals may have died later. Schedules are NCI's codes, read here as Q, the interval in days (D) or hours (H), X, the number of doses. Some schedules carry Z or #; the key to these is not given. Some molecules as drawn cover several salts, stereoisomers or complexes of the source; a dose is that of the sample tested. Where survival is the endpoint, this PubChem deposit counts one and a half times the control or more as active, and values a quarter to a half above the control carry no call in these data; other NCI protocols may use other cut-offs.

This is an account of results in PubChem BioAssay AID248 (DTP/NCI, 2004).

For this assay, the system named is L1210 leukemia ip in BDF1 mice, survival T/C. Briefly: NCI In Vivo Anticancer Drug Screen. Data for tumor model L1210 Leukemia (intraperitoneal) in B6D2F1 (BDF1) mice. The following applies: T/C endpoint: mean survival time, higher T/C = longer survival.
Setting [1] is: dose: 400.0 mg/kg/injection, schedule: Q01DX009 (ip), vehicle: saline with Tween-80.
[2] abbreviates: dose: 200.0 mg/kg/injection, schedule: Q01DX001 (ip), vehicle: saline.
[3] abbreviates: dose: 100.0 mg/kg/injection, schedule: Q01DX009 (ip), vehicle: saline with Tween-80.
[4] abbreviates: dose: 200.0 mg/kg/injection, schedule: Q01DX009 (ip), vehicle: saline with Tween-80.
Setting [5] is: dose: 400.0 mg/kg/injection, schedule: Q04DX002 (ip), vehicle: Klucel (hydroxypropylcellulose) (HPC).
[6] abbreviates: dose: 400.0 mg/kg/injection, schedule: Q01DX009 (ip), vehicle: Klucel (hydroxypropylcellulose) (HPC).
Where [7] appears, read: dose: 200.0 mg/kg/injection, schedule: Q01DX009 (ip), vehicle: Klucel (hydroxypropylcellulose) (HPC).
[8] abbreviates: dose: 200.0 mg/kg/injection, schedule: Q04DX003 (ip), vehicle: Klucel (hydroxypropylcellulose) (HPC).
[9] abbreviates: dose: 400.0 mg/kg/injection, schedule: Q04DX003 (ip), vehicle: Klucel (hydroxypropylcellulose) (HPC).
Setting [10] is: dose: 100.0 mg/kg/injection, schedule: Q01DX009 (ip), vehicle: Klucel (hydroxypropylcellulose) (HPC).
[11] abbreviates: dose: 100.0 mg/kg/injection, schedule: Q04DX003 (ip), vehicle: Klucel (hydroxypropylcellulose) (HPC).

With `O=C(CCl)Oc1c(Cl)c(Cl)c(Cl)c(Cl)c1Cl`, the survivor count was 0 of 6 (dose: 200.0 mg/kg/injection, schedule: Q04DX003 (ip), vehicle: alcohol) and 0 of 6 (dose: 400.0 mg/kg/injection, schedule: Q04DX003 (ip), vehicle: alcohol).
As for `CC(C)(C)OC(=O)CSC#N`, the survivor count is recorded as 1 of 4 (dose: 40.0 mg/kg/injection, schedule: Q01DX001 (ip), vehicle: saline) and 0 of 4 (dose: 80.0 mg/kg/injection, schedule: Q01DX001 (ip), vehicle: saline).
Regarding `OC1OC(COC(c2ccccc2)(c2ccccc2)c2ccccc2)C(O)C(O)C1O` (centres undefined), the survivor count (dose: 100.0 mg/kg/injection, schedule: Q01DX009 (ip), vehicle: saline) was 6 of 6; the survivor count (dose: 200.0 mg/kg/injection, schedule: Q01DX009 (ip), vehicle: saline) was 6 of 6; the survivor count under setting [1] is listed as 0 of 6; the survivor count (dose: 400.0 mg/kg/injection, schedule: Q01DX009 (ip), vehicle: saline) was 0 of 6; the survivor count (dose: 400.0 mg/kg/injection, schedule: Q04DX003 (ip), vehicle: saline) is on record as 3 of 6.
Consider `CCCN1CC(Br)C(=O)NC1=O` (centres undefined), for which the survivor count (dose: 200.0 mg/kg/injection, schedule: Q01DX Z (ip), vehicle: methylcellulose (MC)) is 6 of 6.
As for `O=S1(=O)C=C(Cl)C2C3C=CC(C3)C21` (centres undefined), the survivor count by setting is: (dose: 2.5 mg/kg/injection, schedule: Q01DX009 (ip), vehicle: acetone) 6 of 6; (dose: 10.0 mg/kg/injection, schedule: Q04DX003 (ip), vehicle: acetone) 5 of 6; (dose: 20.0 mg/kg/injection, schedule: Q01DX001 (ip), vehicle: acetone) 0 of 6; (dose: 40.0 mg/kg/injection, schedule: Q01DX001 (ip), vehicle: acetone) 0 of 6.
As for `CCOC(=O)C(C#N)C1CCCCC1` (centres undefined), the survivor count (dose: 400.0 mg/kg/injection, schedule: Q01DX001 (ip), vehicle: saline with Tween-80) was 3 of 3.
With `O=C(CCCC(=O)N/N=C/c1ccccc1O)N/N=C\c1ccccc1O`, the survivor count under setting [2] is on record as 4 of 4.
Regarding `O=C(CNC(=O)c1ccc(Cl)cc1Cl)N/N=C/c1cccc([N+](=O)[O-])c1`, the survivor count runs as follows: (dose: 25.0 mg/kg/injection, schedule: Q01DX009 (ip), vehicle: saline with Tween-80) 3 of 3; (dose: 50.0 mg/kg/injection, schedule: Q01DX009 (ip), vehicle: saline with Tween-80) 3 of 3; under setting [3], 1 of 3; under setting [4], 1 of 3.
With `CCOC(=O)c1cnc(SC)nc1OCC`, the survivor count is 1 of 6 (dose: 50.0 mg/kg/injection, schedule: Q01DX001 (ip), vehicle: Klucel (hydroxypropylcellulose) (HPC)); 0 of 6 (dose: 100.0 mg/kg/injection, schedule: Q01DX001 (ip), vehicle: saline); 0 of 6 under setting [2]; 0 of 6 (dose: 400.0 mg/kg/injection, schedule: Q01DX001 (ip), vehicle: saline).
Turning to `COc1ccc(/C=C2\CS(=O)(=O)C/C(=C\c3ccc(OC)cc3)C2=O)cc1`, under setting [2], the survivor count is given as 6 of 6.
On to `CCCNC(=O)Oc1ccc(C2CCCCC2)cc1`, for which, under setting [5], the survivor count is on record as 3 of 3.
With `CCOC(=O)c1oc2c(C(C)=O)c(O)ccc2c1C`, under setting [5], the T/C is 125 % of control and the survivor count is listed as 3 of 3.
In the case of `CN1C2CCCC1CC(O)(c1ccccc1)C2` (centres undefined), the survivor count by setting is: (dose: 100.0 mg/kg/injection, schedule: Q01DX001 (ip), vehicle: Klucel (hydroxypropylcellulose) (HPC)) 1 of 6; (dose: 200.0 mg/kg/injection, schedule: Q01DX001 (ip), vehicle: Klucel (hydroxypropylcellulose) (HPC)) 0 of 6; (dose: 400.0 mg/kg/injection, schedule: Q01DX001 (ip), vehicle: Klucel (hydroxypropylcellulose) (HPC)) 0 of 6.
Turning to `C#CCCCCC#[C][Hg][C]#CCCCCC#C`, the survivor count (dose: 150.0 mg/kg/injection, schedule: Q01DX001 (ip), vehicle: saline) is on record as 1 of 6 and the survivor count (dose: 300.0 mg/kg/injection, schedule: Q01DX001 (ip), vehicle: saline) is 1 of 6.
As for `ClCCNCc1ccc(Nc2ccnc3cc(Cl)ccc23)cc1`, the survivor count (dose: 150.0 mg/kg/injection, schedule: Q01DX001 (ip), vehicle: carboxymethylcellulose (CMC)) is recorded as 2 of 6 and the survivor count (dose: 300.0 mg/kg/injection, schedule: Q01DX001 (ip), vehicle: carboxymethylcellulose (CMC)) is 0 of 6.
Regarding `CCc1c(Cl)c(C)cc(O)c1Cl`, the survivor count (dose: 100.0 mg/kg/injection, schedule: Q01DX009 (ip), vehicle: gum acacia) is 4 of 6.
As to `c1ccc(NCCOc2ccccc2)cc1`, the survivor count under setting [6] is on record as 1 of 3.
Turning to `CC(=O)OCCn1c2ccccc2c2c(C)c3cnccc3c(C)c21`, under “dose: 75.0 mg/kg/injection, schedule: Q04DX003 (ip), vehicle: saline”, the T/C was 125 % of control. Also, the survivor count (dose: 450.0 mg/kg/injection, schedule: Q04DX003 (ip), vehicle: saline with Tween-80) is 4 of 6.
For the compound `CS(=O)c1cc2c(cc1[N+](=O)[O-])C(=O)c1ccccc1-2` (centres undefined), the survivor count (dose: 80.0 mg/kg/injection, schedule: Q01DX009 (ip), vehicle: Klucel (hydroxypropylcellulose) (HPC)) is recorded as 2 of 6; the survivor count under setting [7] is 0 of 6; the survivor count under setting [8] was 2 of 6; the survivor count under setting [6] is listed as 0 of 6; the survivor count under setting [9] is listed as 0 of 6.
In the case of `OCCOc1nc(Cl)nc(Cl)c1Cl` (tested in a mixture with another compound), the survivor count is given as 3 of 3 under setting [10] and 2 of 3 under setting [7].
Consider `CCCCCC(C[N+](C)(C)C)C(=O)/C=C/c1ccc(Cl)cc1` (centres undefined), for which the survivor count under setting [3] is recorded as 4 of 6, the survivor count under setting [4] was 0 of 6, the survivor count under setting [1] is on record as 0 of 6 and the survivor count under setting [9] was 2 of 6.
Turning to `CC(=O)Nc1ccc(C(=O)CCl)cc1`, the survivor count runs as follows: (dose: 50.0 mg/kg/injection, schedule: Q04DX003 (ip), vehicle: Klucel (hydroxypropylcellulose) (HPC)) 4 of 6; (dose: 100.0 mg/kg/injection, schedule: Q01DX001 (ip), vehicle: carboxymethylcellulose (CMC)) 2 of 4; under setting [10], 0 of 6; under setting [11], 6 of 6; (dose: 200.0 mg/kg/injection, schedule: Q01DX001 (ip), vehicle: carboxymethylcellulose (CMC)) 0 of 4; under setting [7], 0 of 6. Moreover, the survivor count reads like this: under setting [8], 0 of 6; (dose: 400.0 mg/kg/injection, schedule: Q01DX001 (ip), vehicle: carboxymethylcellulose (CMC)) 0 of 4; under setting [6], 0 of 6; under setting [9], 0 of 6.
Turning to `CCCC(=O)NC1CCC(CC2CCCCC2)CC1` (centres undefined), the survivor count (dose: 400.0 mg/kg/injection, schedule: Q04DX003 (ip), vehicle: other) is recorded as 3 of 6.
Take `CCN1CCS/C1=C\C=C\C1=[N+](CC)CCS1`: the survivor count was 0 of 6 (dose: 9.5 mg/kg/injection, schedule: Q01DX001 (ip), vehicle: other); 0 of 6 (dose: 19.0 mg/kg/injection, schedule: Q01DX001 (ip), vehicle: other); 0 of 6 (dose: 38.0 mg/kg/injection, schedule: Q01DX001 (ip), vehicle: other).
Consider `CCCCCCCCCCCCCCCCCc1cc(=O)n(-c2ccc(NC(=O)CCC(=O)OC)cc2)n1C`, for which the survivor count was 6 of 6 (dose: 25.0 mg/kg/injection, schedule: Q04DX003 (ip), vehicle: Klucel (hydroxypropylcellulose) (HPC)); 2 of 6 under setting [11]; 0 of 6 under setting [8]; 0 of 6 under setting [9].
For the compound `CC1(C)C2CCC(CCOC(=O)COc3ccc(Cl)cc3Cl)C1C2` (centres undefined), the survivor count under setting [1] is 4 of 6.
